Reference: patent publication US20030167129A1, “Binding compounds and methods for identifying binding compounds” (priority 2000, published 2003)
Results are given in words; binding and its absence hold for the method and conditions named. Some binding calls cover weakened binding; strength is not graded here.

Protein sequences, listed by entry. Tags and fused reporters are not part of them.
UniProt P61073: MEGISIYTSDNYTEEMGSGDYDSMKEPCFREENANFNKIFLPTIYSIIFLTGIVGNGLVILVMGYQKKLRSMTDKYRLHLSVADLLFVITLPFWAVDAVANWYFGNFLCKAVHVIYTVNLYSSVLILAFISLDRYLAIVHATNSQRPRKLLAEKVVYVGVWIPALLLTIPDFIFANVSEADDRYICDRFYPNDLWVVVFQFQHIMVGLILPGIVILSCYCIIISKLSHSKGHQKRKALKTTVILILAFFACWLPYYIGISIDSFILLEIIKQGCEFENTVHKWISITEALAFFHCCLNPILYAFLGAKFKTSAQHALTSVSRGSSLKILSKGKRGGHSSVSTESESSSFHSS

Molecular target: CXCR4-GST (human) (UniProt P61073)
Assay: phage display (NEB PhD C7C) on immobilized functional CXCR4, elution with SDF1α or glycine pH 2.2

Row | Binder | binding
1 | QQRSTAF [Phage sequence Q-Q-R-S-T-A-F] | binds
2 | DLQARYS [Phage sequence D-L-Q-A-R-Y-S] | binds
3 | RTTSDAL [Phage sequence R-T-T-S-D-A-L] | binds
4 | TDKLLLD [Phage sequence T-D-K-L-L-L-D] | binds
5 | LGVKAPS [Phage sequence L-G-V-K-A-P-S] | binds
6 | QYATPNK [Phage sequence Q-Y-A-T-P-N-K] | binds
7 | PAHYPML [Phage sequence P-A-H-Y-P-M-L] | binds
8 | PFRATTE [Phage sequence P-F-R-A-T-T-E] | binds
9 | STWPLAQ [Phage sequence S-T-W-P-L-A-Q] | binds
10 | HTQHVRT [Phage sequence H-T-Q-H-V-R-T] | binds
